Measurements from paper PMC6733923.

The chains behind the UniProt entries cited, without tags or fusion partners.
UniProt Q05397: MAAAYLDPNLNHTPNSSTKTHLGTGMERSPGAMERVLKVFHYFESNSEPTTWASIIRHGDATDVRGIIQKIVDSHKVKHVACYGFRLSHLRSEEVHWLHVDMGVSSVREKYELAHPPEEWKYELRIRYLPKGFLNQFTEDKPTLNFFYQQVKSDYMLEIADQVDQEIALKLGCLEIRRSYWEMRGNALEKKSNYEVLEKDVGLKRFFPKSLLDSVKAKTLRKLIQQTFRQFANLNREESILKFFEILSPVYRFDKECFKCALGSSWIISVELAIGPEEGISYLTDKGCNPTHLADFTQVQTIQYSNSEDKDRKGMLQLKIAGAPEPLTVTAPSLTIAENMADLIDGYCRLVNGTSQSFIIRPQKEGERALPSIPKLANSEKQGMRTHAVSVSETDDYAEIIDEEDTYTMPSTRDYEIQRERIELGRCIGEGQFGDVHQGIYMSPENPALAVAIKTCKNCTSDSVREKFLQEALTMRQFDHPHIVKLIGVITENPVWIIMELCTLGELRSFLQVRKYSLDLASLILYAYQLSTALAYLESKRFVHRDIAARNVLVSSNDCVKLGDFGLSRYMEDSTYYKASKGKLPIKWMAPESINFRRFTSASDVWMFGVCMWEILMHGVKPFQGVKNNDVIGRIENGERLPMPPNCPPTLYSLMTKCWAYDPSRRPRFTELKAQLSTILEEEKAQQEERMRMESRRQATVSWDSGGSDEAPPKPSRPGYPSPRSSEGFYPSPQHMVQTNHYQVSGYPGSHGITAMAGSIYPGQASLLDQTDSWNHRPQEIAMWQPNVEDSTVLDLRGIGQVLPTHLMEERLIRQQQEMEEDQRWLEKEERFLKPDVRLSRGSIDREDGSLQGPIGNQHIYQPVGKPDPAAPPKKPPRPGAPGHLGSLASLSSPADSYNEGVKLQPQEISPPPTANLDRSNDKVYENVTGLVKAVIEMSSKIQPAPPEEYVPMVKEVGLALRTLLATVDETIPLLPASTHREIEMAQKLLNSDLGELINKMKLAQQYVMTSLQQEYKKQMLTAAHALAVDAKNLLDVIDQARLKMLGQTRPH

Target: Focal adhesion kinase 1 (human (endogenous in HCT-116)) (UniProt Q05397)
Experiment: affinity purification with mass spectrometry; anti-FAK polyclonal antibody and Protein A/G agarose on 1.5 mg HCT-116 total cell lysate, cells untreated (regular IP) or stimulated with 10 ng/ml EGF for 30 min; rabbit IgG as control; 1D SDS-PAGE, in-gel trypsin digestion, nano-LC-MS/MS; the proteins of Table 2 were found only with EGF …

B1: Isoform 1 of Voltage-dependent anion-selective channel protein 2 (protein, UniProt P45880-1 1-309)
chain: MSWCNELRLPALKQHSIGRGLESHITMCIPPSYADLGKAARDIFNKGFGFGLVKLDVKTKSCSGVEFSTSGSSNTDTGKVTGTLETKYKWCEYGLTFTEKWNTDNTLGTEIAIEDQICQGLKLTFDTTFSPNTGKKSGKIKSSYKRECINLGCDVDFDFAGPAIHGSAVFGYEGWLAGYQMTFDSAKSKLTRNNFAVGYRTGDFQLHTNVNDGTEFGGSIYQKVCEDLDTSVNLAWTSGTNCTRFGIAAKYQLDPTASISAKVNNSSLIGVGYTQTLRPGVKLTLSALVDGKSINAGGHKVGLALELEA
binding: binds

B3: WD repeat-containing protein 46 (protein, UniProt O15213 1-610)
chain: METAPKPGKDVPPKKDKLQTKRKKPRRYWEEETVPTTAGASPGPPRNKKNRELRPQRPKNAYILKKSRISKKPQVPKKPREWKNPESQRGLSGTQDPFPGPAPVPVEVVQKFCRIDKSRKLPHSKAKTRSRLEVAEAEEEETSIKAARSELLLAEEPGFLEGEDGEDTAKICQADIVEAVDIASAAKHFDLNLRQFGPYRLNYSRTGRHLAFGGRRGHVAALDWVTKKLMCEINVMEAVRDIRFLHSEALLAVAQNRWLHIYDNQGIELHCIRRCDRVTRLEFLPFHFLLATASETGFLTYLDVSVGKIVAALNARAGRLDVMSQNPYNAVIHLGHSNGTVSLWSPAMKEPLAKILCHRGGVRAVAVDSTGTYMATSGLDHQLKIFDLRGTYQPLSTRTLPHGAGHLAFSQRGLLVAGMGDVVNIWAGQGKASPPSLEQPYLTHRLSGPVHGLQFCPFEDVLGVGHTGGITSMLVPGAGEPNFDGLESNPYRSRKQRQEWEVKALLEKVPAELICLDPRALAEVDVISLEQGKKEQIERLGYDPQAKAPFQPKPKQKGRSSTASLVKRKRKVMDEEHRDKVRQSLQQQHHKEAKAKPTGARPSALDRFVR
binding: binds

B5: Putative ribosome-binding factor A, mitochondrial (protein, UniProt Q8N0V3-1 42-343)
chain: KNWLKKFASKTKKKVWYESPSLGSHSTYKPSKLEFLMRSTSKKTRKEDHARLRALNGLLYKALTDLLCTPEVSQELYDLNVELSKVSLTPDFSACRAYWKTTLSAEQNAHMEAVLQRSAAHMRHLLMSQQTLRNVPPIVFVQDKGNAALAELDQLLAVADFGPRDERDNFVQNDFRDPDAPQPCGTTEPTTSSSLCGIDHEALNKQIMEYKRRKDKGLGGLVWQGQVAELTTQMKKGRKRAKPRLEQDSSLKSYLSGEEVEDDLDLVGAPEYECYAPDTEELEAERGGGRTEDGHSCGASRE
binding: binds

B7: Isoform 3 of Drebrin (protein, UniProt Q16643-3 1-695)
chain: MAGVSFSGHRLELLAAYEEVIREESAADWALYTYEDGSDDLKLAASGEGGLQELSGHFENQKVMYGFCSVKDSQAALPKYVLINWVGEDVPDARKCACASHVAKVAEFFQGVDVIVNASSVEDIDAGAIGQRLSNGLARLSSPVLHRLRLREDENAEPVGTTYQKTDAAVEMKRINREQFWEQAKKEEELRKEEERKKALDERLRFEQERMEQERQEQEERERRYREREQQIEEHRRKQQTLEAEEAKRRLKEQSIFGDHRDEEEETHMKKSESEVEEAAAIIAQRPDNPREFFKQQERVASASAGSCDVPSPFNHRPGRPYCPFIKASDSGPSSSSSSSSSPPRTPFPYITCHRTPNLSSSLPCSHLDSHRRMAPTPIPTRSPSDSSTASTPVAEQIERALDEVTSSQPPPLPPPPPPAQETQEPSPILDSEETRAAAPQAWAGPMEEPPQAQAPPRGPGSPAEDLMFMESAEQAVLAAPVEPATADATEIHDAADTIETDTATADTTVANNVPPAATSLIDLWPGNGEGASTLQGEPRAPTPPSGTEVTLAEVPLLDEVAPEPLLPAGEGCATLLNFDELPEPPATFCDPEEVEGESLAAPQTPTLPSALEELEQEQEPEPHLLTNGETTQKEGTQASEGYFSQSQEEEFAQSEELCAKAPPPVFYNKPPEIDITCWDADPVPEEEEGFEGGD
binding: binds

B9: Ribosome biogenesis regulatory protein homolog (protein, UniProt Q15050 1-365)
chain: MEGQSVEELLAKAEQDEAEKLQRITVHKELELQFDLGNLLASDRNPPTGLRCAGPTPEAELQALARDNTQLLINQLWQLPTERVEEAIVARLPEPTTRLPREKPLPRPRPLTRWQQFARLKGIRPKKKTNLVWDEVSGQWRRRWGYQRARDDTKEWLIEVPGNADPLEDQFAKRIQAKKERVAKNELNRLRNLARAHKMQLPSAAGLHPTGHQSKEELGRAMQVAKVSTASVGRFQERLPKEKVPRGSGKKRKFQPLFGDFAAEKKNQLELLRVMNSKKPQLDVTRATNKQMREEDQEEAAKRRKMSQKGKRKGGRQGPGGKRKGGPPSQGGKRKGGLGGKMNSGPPGLGGKRKGGQRPGGKRRK
binding: binds

The next lines start with the values.

binding: binds
B2: Matrin-3 (protein, UniProt P43243 1-847)
chain: MSKSFQQSSLSRDSQGHGRDLSAAGIGLLAAATQSLSMPASLGRMNQGTARLASLMNLGMSSSLNQQGAHSALSSASTSSHNLQSIFNIGSRGPLPLSSQHRGDADQASNILASFGLSARDLDELSRYPEDKITPENLPQILLQLKRRRTEEGPTLSYGRDGRSATREPPYRVPRDDWEEKRHFRRDSFDDRGPSLNPVLDYDHGSRSQESGYYDRMDYEDDRLRDGERCRDDSFFGETSHNYHKFDSEYERMGRGPGPLQERSLFEKKRGAPPSSNIEDFHGLLPKGYPHLCSICDLPVHSNKEWSQHINGASHSRRCQLLLEIYPEWNPDNDTGHTMGDPFMLQQSTNPAPGILGPPPPSFHLGGPAVGPRGNLGAGNGNLQGPRHMQKGRVETSRVVHIMDFQRGKNLRYQLLQLVEPFGVISNHLILNKINEAFIEMATTEDAQAAVDYYTTTPALVFGKPVRVHLSQKYKRIKKPEGKPDQKFDQKQELGRVIHLSNLPHSGYSDSAVLKLAEPYGKIKNYILMRMKSQAFIEMETREDAMAMVDHCLKKALWFQGRCVKVDLSEKYKKLVLRIPNRGIDLLKKDKSRKRSYSPDGKESPSDKKSKTDGSQKTESSTEGKEQEEKSGEDGEKDTKDDQTEQEPNMLLESEDELLVDEEEAAALLESGSSVGDETDLANLGDVASDGKKEPSDKAVKKDGSASAAAKKKLKKVDKIEELDQENEAALENGIKNEENTEPGAESSENADDPNKDTSENADGQSDENKDDYTIPDEYRIGPYQPNVPVGIDYVIPKTGFYCKLCSLFYTNEEVAKNTHCSSLPHYQKLKKFLNKLAEERRQKKET

binding: binds
B4: Ladinin-1 (protein, UniProt O00515 1-517)
chain: MAVSRKDWSALSSLARQRTLEDEEEQERERRRRHRNLSSTTDDEAPRLSQNGDRQASASERLPSVEEAEVPKPLPPASKDEDEDIQSILRTRQERRQRRQVVEAAQAPIQERLEAEEGRNSLSPVQATQKPLVSKKELEIPPRRRLSREQRGPWALEEESLVGREPEERKKGVPEKSPVLEKSSMPKKTAPEKSLVSDKTSISEKVLASEKTSLSEKIAVSEKRNSSEKKSVLEKTSVSEKSLAPGMALGSGRRLVSEKASIFEKALASEKSPTADAKPAPKRATASEQPLAQEPPASGGSPATTKEQRGRALPGKNLPSLAKQGASDPPTVASRLPPVTLQVKIPSKEEEADMSSPTQRTYSSSLKRSSPRTISFRMKPKKENSETTLTRSASMKLPDNTVKLGEKLERYHTAIRRSESVKSRGLPCTELFVAPVGVASKRHLFEKELAGQSRAEPASSRKENLRLSGVVTSRLNLWISRTQESGDQDPQEAQKASSATERTQWGQKSDSSLDAEV

binding: binds
B6: Isoform 3 of La-related protein 7 (protein, UniProt Q4G0J3-3 1-589)
chain: MIPNIEGMETESGNQEKVMEEESTEKKKEVEKKKRSRVKQVLADIAKQVDFWFGDANLHKDRFLREQIEKSRDGYVDISLLVSFNKMKKLTTDGKLIARALRSSAVVELDLEGTRIRRKKPLGERPKDEDERTVYVELLPKNVNHSWIERVFGKCGNVVYISIPHYKSTGDPKGFAFVEFETKEQAAKAIEFLNNPPEEAPRKPGIFPKTVKNKPIPALRVVEEKKKKKKKKGRMKKEDNIQAKEENMDTSNTSISKMKRSRPTSEGSDIESTEPQKQCSKKKKKRDRVEASSLPEVRTGKRKRSSSEDAESLAPRSKVKKIIQKDIIKEASEASKENRDIEISTEEEKDTGDLKDSSLLKTKRKHKKKHKERHKMGEEVIPLRVLSKSEWMDLKKEYLALQKASMASLKKTISQIKSESEMETDSGVPQNTGMKNEKTANREECRTQEKVNATGPQFVSGVIVKIISTEPLPGRKQVRDTLAAISEVLYVDLLEGDTECHARFKTPEDAQAVINAYTEINKKHCWKLEILSGDHEQRYWQKILVDRQAKLNQPREKKRGTEKLITKAEKIRLAKTQQASKHIRFSEYD

binding: binds
B8: Zyxin (protein, UniProt Q15942 1-572)
chain: MAAPRPSPAISVSVSAPAFYAPQKKFGPVVAPKPKVNPFRPGDSEPPPAPGAQRAQMGRVGEIPPPPPEDFPLPPPPLAGDGDDAEGALGGAFPPPPPPIEESFPPAPLEEEIFPSPPPPPEEEGGPEAPIPPPPQPREKVSSIDLEIDSLSSLLDDMTKNDPFKARVSSGYVPPPVATPFSSKSSTKPAAGGTAPLPPWKSPSSSQPLPQVPAPAQSQTQFHVQPQPQPKPQVQLHVQSQTQPVSLANTQPRGPPASSPAPAPKFSPVTPKFTPVASKFSPGAPGGSGSQPNQKLGHPEALSAGTGSPQPPSFTYAQQREKPRVQEKQHPVPPPAQNQNQVRSPGAPGPLTLKEVEELEQLTQQLMQDMEHPQRQNVAVNELCGRCHQPLARAQPAVRALGQLFHIACFTCHQCAQQLQGQQFYSLEGAPYCEGCYTDTLEKCNTCGEPITDRMLRATGKAYHPHCFTCVVCARPLEGTSFIVDQANRPHCVPDYHKQYAPRCSVCSEPIMPEPGRDETVRVVALDKNFHMKCYKCEDCGKPLSIEADDNGCFPLDGHVLCRKCHTARAQT

binding: binds
B10: Junction plakoglobin (protein, UniProt P14923 1-745)
chain: MEVMNLMEQPIKVTEWQQTYTYDSGIHSGANTCVPSVSSKGIMEEDEACGRQYTLKKTTTYTQGVPPSQGDLEYQMSTTARAKRVREAMCPGVSGEDSSLLLATQVEGQATNLQRLAEPSQLLKSAIVHLINYQDDAELATRALPELTKLLNDEDPVVVTKAAMIVNQLSKKEASRRALMGSPQLVAAVVRTMQNTSDLDTARCTTSILHNLSHHREGLLAIFKSGGIPALVRMLSSPVESVLFYAITTLHNLLLYQEGAKMAVRLADGLQKMVPLLNKNNPKFLAITTDCLQLLAYGNQESKLIILANGGPQALVQIMRNYSYEKLLWTTSRVLKVLSVCPSNKPAIVEAGGMQALGKHLTSNSPRLVQNCLWTLRNLSDVATKQEGLESVLKILVNQLSVDDVNVLTCATGTLSNLTCNNSKNKTLVTQNSGVEALIHAILRAGDKDDITEPAVCALRHLTSRHPEAEMAQNSVRLNYGIPAIVKLLNQPNQWPLVKATIGLIRNLALCPANHAPLQEAAVIPRLVQLLVKAHQDAQRHVAAGTQQPYTDGVRMEEIVEGCTGALHILARDPMNRMEIFRLNTIPLFVQLLYSSVENIQRVAAGVLCELAQDKEAADAIDAEGASAPLMELLHSRNEGTATYAAAVLFRISEDKNPDYRKRVSVELTNSLFKHDPAAWEAAQSMIPINEPYGDDMDATYRPMYSSDVPLDPLEMHMDMDGDYPIDTYSDGLRPPYPTADHMLA

Results are given in words; binding and its absence hold for the method and conditions named. Binding seen in cells or lysates may run through a third protein. These calls come from enrichment with a bait or labelling near it, and not all partners need be listed. Where a sequence is shown, tags or fusion partners need not be part of it. One block for each binder: values may come before it.
